Data from publication PMC4337610.
For at least one entry, the source does not settle the construct or the ends of the probe. Whether high values mean tight binding is not given here for every scale.

Protein sequences, listed by entry. Tags and fused reporters are not part of them. Residues count along the entry.
UniProt P0A6X3, 1-66: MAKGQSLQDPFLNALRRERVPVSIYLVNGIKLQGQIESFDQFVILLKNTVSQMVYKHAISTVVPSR

Legend:
[1] = target: Hfq wild-type (Escherichia coli) (UniProt P0A6X3); assay: BLI; conditions: 1 uM RydC; BLI: 25 mM Tris pH 7.5, 50 mM NaCl, 50 mM KCl, 1 mM MgCl2, 1 mM DTT, 0-500 nM Hfq, temperature not stated; recombinant protein; residues 1-102; label: 5' biotin (GMP-biotin); probe letters rebuilt from the primers and the genome
Hfq66 = Hfq66 (UniProt P0A6X3); assay: BLI; conditions: 1 uM RydC; BLI: 25 mM Tris pH 7.5, 50 mM NaCl, 50 mM KCl, 1 mM MgCl2, 1 mM DTT, 0-500 nM Hfq, temperature not stated; recombinant protein; residues 1-66; label: 5' biotin (GMP-biotin); probe letters rebuilt from the primers and the genome; scale: fold lower affinity than without RydC

In the case of “GGUUGUUUAUAUUACGAUAAUUAUUAGGCAUUAACGGGAACCGGAGCGUUCCCGAUUCACCAUGGAUGGCCUUUUCGGCAAGGGCUCCUCCCUUCCUCUGUUCUACGUCGGAUAACUGGCUCACGGAAUUGUCCGUGGG [cfa1]”, the binding signal (fold lower affinity than without RydC) [1] is reported as 5 and the binding signal (Hfq66) is reported as 100.
